Results published in the supplement of paper PMC10849652.
This is one part of the list.

By UniProt entry, the sequences of proteins in these tests, tags left out. Where a name states a change or a piece, a line headed by the entry shows the natural chain unless it says otherwise.
UniProt Q49A26: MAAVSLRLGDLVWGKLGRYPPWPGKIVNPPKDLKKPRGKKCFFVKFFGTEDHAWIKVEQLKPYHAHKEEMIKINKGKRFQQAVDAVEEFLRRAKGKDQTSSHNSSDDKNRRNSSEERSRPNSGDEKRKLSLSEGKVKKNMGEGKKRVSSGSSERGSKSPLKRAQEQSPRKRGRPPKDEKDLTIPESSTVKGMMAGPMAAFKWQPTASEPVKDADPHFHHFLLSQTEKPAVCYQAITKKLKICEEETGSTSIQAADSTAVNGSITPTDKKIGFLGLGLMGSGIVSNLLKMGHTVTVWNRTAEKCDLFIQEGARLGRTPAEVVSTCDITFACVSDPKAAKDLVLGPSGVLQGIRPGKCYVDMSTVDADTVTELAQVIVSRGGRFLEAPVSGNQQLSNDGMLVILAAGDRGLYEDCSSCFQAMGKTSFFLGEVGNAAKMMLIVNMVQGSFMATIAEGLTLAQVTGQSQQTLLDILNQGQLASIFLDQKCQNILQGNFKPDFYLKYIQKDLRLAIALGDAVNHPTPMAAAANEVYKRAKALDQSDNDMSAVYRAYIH
UniProt Q92917: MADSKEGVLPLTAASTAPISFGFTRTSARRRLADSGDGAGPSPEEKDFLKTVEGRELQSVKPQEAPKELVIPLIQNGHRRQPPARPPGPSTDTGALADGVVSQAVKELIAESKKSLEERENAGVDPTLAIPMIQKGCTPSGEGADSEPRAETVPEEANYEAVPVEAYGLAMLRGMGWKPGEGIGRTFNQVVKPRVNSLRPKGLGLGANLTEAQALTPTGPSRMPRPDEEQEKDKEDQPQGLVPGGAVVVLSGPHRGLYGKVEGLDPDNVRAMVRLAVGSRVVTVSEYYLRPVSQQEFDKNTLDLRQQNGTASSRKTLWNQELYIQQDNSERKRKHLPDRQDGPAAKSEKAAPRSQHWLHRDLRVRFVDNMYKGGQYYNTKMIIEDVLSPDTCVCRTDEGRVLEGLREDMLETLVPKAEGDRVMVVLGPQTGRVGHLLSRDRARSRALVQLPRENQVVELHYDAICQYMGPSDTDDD
UniProt Q9Y248: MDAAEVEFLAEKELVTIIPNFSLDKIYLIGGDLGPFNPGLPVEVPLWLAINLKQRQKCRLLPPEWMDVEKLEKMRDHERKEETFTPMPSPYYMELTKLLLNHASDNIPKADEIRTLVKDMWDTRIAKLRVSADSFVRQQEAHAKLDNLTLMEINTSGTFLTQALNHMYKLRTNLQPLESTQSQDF
UniProt Q5JWF2, whole entry, looked up: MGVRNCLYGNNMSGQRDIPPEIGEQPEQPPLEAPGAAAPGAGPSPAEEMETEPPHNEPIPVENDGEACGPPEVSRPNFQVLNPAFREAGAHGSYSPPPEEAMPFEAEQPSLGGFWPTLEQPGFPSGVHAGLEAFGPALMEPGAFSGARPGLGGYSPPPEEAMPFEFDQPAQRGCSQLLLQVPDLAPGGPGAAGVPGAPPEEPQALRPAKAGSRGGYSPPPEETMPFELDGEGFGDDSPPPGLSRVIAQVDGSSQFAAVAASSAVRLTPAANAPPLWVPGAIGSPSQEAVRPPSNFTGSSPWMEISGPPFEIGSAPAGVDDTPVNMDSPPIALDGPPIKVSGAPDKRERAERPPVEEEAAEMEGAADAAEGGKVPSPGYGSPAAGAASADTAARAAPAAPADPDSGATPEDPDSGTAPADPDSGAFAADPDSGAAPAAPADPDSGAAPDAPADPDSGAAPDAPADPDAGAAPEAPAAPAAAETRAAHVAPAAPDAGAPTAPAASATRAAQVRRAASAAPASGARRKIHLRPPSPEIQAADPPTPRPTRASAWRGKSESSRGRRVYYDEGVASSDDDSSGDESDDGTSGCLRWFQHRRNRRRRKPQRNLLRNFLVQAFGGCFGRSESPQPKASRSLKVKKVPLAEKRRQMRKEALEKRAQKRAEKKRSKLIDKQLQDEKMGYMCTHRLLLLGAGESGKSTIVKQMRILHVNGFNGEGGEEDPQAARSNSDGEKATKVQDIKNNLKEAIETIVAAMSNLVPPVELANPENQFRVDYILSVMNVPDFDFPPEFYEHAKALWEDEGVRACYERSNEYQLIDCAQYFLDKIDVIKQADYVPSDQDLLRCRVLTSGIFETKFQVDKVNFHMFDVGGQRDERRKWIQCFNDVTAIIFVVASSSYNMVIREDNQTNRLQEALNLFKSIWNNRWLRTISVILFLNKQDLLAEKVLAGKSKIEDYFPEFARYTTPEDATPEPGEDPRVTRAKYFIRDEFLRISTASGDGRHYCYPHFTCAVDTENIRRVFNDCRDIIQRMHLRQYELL
UniProt Q13227: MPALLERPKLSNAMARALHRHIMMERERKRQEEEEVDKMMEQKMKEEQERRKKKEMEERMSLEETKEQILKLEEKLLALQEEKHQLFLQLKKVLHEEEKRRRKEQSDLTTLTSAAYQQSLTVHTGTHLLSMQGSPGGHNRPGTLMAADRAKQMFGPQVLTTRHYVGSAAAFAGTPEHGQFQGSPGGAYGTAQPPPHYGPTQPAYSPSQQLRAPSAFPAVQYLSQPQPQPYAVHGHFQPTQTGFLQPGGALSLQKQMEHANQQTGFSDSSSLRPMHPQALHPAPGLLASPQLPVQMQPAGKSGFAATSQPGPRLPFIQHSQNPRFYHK
UniProt P00367: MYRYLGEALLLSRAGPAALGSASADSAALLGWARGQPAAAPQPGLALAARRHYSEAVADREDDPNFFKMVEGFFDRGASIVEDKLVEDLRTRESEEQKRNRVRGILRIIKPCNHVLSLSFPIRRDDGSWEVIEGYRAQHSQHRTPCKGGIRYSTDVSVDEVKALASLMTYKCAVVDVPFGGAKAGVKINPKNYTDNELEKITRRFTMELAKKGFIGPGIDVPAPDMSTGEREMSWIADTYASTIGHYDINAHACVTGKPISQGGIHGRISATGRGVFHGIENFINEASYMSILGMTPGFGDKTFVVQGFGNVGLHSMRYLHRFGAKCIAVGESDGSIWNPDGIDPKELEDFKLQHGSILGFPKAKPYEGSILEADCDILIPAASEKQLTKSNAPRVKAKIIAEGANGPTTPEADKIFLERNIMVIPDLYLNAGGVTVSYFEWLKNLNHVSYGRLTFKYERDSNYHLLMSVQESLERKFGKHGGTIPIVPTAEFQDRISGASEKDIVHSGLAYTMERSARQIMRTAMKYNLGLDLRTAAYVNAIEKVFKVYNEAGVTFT
UniProt P36915, whole entry, looked up: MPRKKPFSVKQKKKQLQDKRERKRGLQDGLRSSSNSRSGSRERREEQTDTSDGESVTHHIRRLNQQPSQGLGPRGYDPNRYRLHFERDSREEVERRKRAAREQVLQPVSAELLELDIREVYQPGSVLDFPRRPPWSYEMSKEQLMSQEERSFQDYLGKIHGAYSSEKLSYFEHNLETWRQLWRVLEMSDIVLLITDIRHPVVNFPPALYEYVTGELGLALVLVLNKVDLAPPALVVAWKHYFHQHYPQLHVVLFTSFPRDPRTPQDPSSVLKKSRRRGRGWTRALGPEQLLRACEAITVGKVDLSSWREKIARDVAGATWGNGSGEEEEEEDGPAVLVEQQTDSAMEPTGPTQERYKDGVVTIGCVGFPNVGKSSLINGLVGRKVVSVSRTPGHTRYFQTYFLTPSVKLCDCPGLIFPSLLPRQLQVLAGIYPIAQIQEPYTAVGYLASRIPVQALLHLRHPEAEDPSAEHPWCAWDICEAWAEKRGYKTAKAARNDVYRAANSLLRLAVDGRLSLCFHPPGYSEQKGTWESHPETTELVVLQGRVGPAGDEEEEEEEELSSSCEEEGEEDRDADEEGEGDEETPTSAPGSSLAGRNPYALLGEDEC
UniProt Q4ZG55: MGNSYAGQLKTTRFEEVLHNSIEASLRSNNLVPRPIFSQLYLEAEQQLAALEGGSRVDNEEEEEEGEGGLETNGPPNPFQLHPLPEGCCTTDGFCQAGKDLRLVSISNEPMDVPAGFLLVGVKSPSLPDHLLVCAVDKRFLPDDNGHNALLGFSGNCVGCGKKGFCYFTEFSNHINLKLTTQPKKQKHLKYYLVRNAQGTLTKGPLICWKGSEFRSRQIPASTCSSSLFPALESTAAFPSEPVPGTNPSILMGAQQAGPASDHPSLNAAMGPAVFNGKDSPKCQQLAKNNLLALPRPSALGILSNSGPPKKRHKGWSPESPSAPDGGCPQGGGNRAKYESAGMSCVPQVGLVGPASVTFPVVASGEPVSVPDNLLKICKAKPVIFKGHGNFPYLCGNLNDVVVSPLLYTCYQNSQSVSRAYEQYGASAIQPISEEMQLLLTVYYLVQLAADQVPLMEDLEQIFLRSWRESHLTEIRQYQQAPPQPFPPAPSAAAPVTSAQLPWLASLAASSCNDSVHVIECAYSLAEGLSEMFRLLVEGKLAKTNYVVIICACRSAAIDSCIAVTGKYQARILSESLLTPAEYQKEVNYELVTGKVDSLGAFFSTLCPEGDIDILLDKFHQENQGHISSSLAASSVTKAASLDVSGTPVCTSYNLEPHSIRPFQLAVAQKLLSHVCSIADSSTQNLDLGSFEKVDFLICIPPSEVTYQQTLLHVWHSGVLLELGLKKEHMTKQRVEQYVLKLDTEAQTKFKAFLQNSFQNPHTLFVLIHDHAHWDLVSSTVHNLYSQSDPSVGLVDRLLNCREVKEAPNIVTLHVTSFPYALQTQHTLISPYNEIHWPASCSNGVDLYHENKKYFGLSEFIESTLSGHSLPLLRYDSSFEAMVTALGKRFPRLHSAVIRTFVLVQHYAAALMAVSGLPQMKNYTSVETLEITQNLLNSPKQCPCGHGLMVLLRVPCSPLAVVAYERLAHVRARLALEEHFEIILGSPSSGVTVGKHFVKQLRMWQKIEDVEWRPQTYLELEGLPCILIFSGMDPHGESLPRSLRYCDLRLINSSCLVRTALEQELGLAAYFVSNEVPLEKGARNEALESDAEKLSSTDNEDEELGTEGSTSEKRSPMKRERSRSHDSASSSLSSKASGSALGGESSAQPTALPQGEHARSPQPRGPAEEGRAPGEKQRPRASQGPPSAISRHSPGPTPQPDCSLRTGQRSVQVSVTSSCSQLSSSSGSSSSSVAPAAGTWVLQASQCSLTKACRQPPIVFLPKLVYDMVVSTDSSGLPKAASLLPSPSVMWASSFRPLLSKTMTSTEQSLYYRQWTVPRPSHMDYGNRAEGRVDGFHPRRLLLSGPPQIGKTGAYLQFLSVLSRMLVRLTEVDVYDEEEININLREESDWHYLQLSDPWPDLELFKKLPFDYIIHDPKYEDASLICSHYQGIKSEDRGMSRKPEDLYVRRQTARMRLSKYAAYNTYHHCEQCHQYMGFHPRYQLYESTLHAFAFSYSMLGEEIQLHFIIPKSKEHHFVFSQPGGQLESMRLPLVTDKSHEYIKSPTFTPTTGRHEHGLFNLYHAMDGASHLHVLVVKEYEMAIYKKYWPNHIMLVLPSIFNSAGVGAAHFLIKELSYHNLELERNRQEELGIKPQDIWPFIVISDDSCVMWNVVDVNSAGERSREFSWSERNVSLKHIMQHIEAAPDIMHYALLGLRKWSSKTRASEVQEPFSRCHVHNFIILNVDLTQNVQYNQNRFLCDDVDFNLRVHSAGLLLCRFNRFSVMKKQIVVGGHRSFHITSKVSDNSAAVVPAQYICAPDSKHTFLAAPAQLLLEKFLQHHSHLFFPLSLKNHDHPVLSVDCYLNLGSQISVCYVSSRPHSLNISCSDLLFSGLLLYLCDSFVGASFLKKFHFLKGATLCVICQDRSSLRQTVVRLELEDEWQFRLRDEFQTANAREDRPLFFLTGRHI
UniProt Q9H9Y4: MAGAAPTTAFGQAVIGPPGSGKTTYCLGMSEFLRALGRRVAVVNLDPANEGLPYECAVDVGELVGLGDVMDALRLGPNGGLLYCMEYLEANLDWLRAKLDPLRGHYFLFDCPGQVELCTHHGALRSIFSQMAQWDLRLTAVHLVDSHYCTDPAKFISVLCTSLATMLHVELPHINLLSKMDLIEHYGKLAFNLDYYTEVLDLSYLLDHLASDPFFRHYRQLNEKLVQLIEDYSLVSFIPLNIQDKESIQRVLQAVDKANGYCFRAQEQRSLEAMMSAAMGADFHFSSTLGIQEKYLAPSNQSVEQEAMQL
UniProt Q9UKD1: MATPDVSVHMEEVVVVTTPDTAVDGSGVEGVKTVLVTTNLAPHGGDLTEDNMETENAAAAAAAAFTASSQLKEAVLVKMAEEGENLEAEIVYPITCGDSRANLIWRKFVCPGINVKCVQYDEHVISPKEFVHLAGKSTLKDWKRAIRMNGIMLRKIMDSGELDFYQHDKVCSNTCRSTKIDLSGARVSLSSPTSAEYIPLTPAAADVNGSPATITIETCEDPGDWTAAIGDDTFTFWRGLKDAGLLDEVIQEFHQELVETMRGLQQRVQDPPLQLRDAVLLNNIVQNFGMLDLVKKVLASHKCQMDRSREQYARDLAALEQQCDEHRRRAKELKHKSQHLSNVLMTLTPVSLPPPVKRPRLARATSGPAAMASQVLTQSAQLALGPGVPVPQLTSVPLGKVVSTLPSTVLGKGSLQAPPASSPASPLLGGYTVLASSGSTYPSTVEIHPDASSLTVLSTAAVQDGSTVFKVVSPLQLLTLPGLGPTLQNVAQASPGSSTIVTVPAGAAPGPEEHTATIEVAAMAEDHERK

What was measured:
Assay in all cases: log2 fold change, soluble protein after heating vs DMSO (PISA); higher = thermal stabilisation; K562 cells, 10 uM, 30 min; active = over 0.2 and 3.5 SD of the protein, either way, in both replicates (recomputed)
[1] = compound: CS(=O)(=O)c1ccc(-c2cnc(N)c(C(=O)Nc3ccccc3)n2)cc1
Method in brief: (§1)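 K562 cells at 2×10^6 cells/mL were treated for 30 min with 10 μM compound, and aliquots were heated for 3 min over 48°C-58°C before pooling. Extraction used PBS with 0.5% NP-40 at 4°C, and soluble protein was the supernatant after 21,000xg for 90 min, measured by TMTpro 16plex LC-MS/MS with channel sums equalised. Thermal stability values, relative to control samples and from duplicates, are log2 fold changes.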

crizotinib = compound: C[C@@H](Oc1cc(-c2cnn(C3CCNCC3)c2)cnc1N)c1c(Cl)ccc(F)c1Cl [crizotinib]
Method in brief: as §1

[2] = compound: C[C@H](C1=CC=C(C=C1)C(=O)NC2=C3C=CNC3=NC=C2)N
Method in brief: as §1

doramapimod = compound: Cc1ccc(-n2nc(C(C)(C)C)cc2NC(=O)Nc2ccc(OCCN3CCOCC3)c3ccccc23)cc1 [doramapimod]
Method in brief: as §1

bafetinib = compound: Cc1ccc(NC(=O)c2ccc(CN3CC[C@H](N(C)C)C3)c(C(F)(F)F)c2)cc1Nc1nccc(-c2cncnc2)n1 [bafetinib]
Method in brief: as §1

nilotinib = compound: Cc1cn(-c2cc(NC(=O)c3ccc(C)c(Nc4nccc(-c5cccnc5)n4)c3)cc(C(F)(F)F)c2)cn1 [nilotinib]
Method in brief: as §1

[3] = compound: Cc1nc(Nc2n[nH]c3c2CN(C(=O)N[C@H](CN(C)C)c2ccccc2)C3(C)C)c2sccc2n1
Method in brief: as §1

[4] = compound: Cc1ncc(-c2ccnc(Nc3ccc(S(C)(=O)=O)cc3)n2)n1C(C)C
Method in brief: as §1

[5] = compound: Cn1cc(-c2ccc3c(c2)CCN3C(=O)Cc2cccc(C(F)(F)F)c2)c2c(N)ncnc21
Method in brief: as §1

tipifarnib = compound: Cn1cncc1[C@@](N)(c1ccc(Cl)cc1)c1ccc2c(c1)c(-c1cccc(Cl)c1)cc(=O)n2C [tipifarnib]
Method in brief: as §1

[6] = compound: C[C@@H]1COCCN1C2=NC(=NC(=C2)C3(CC3)S(=O)(=O)C)C4=C5C=CNC5=CC=C4
Method in brief: as §1

duvelisib = compound: C[C@H](Nc1ncnc2nc[nH]c12)c1cc2cccc(Cl)c2c(=O)n1-c1ccccc1 [duvelisib]
Method in brief: as §1

[7] = compound: Cc1cc(SCc2sc(-c3ccc(C(F)(F)F)cc3)nc2C)ccc1OCC(=O)O
Method in brief: as §1

ispinesib = compound: Cc1ccc(C(=O)N(CCCN)[C@@H](c2nc3cc(Cl)ccc3c(=O)n2Cc2ccccc2)C(C)C)cc1 [ispinesib]
Method in brief: as §1

dasatinib = compound: Cc1nc(Nc2ncc(C(=O)Nc3c(C)cccc3Cl)s2)cc(N2CCN(CCO)CC2)n1 [dasatinib]
Method in brief: as §1

[8] = compound: Cn1cc(-c2ccc3nnc(C(F)(F)c4ccc5ncccc5c4)n3n2)cn1
Method in brief: as §1

mubritinib = compound: FC(F)(F)c1ccc(/C=C/c2nc(COc3ccc(CCCCn4ccnn4)cc3)co2)cc1 [mubritinib]
Method in brief: as §1

gandotinib = compound: Cc1cc(Nc2cc(CN3CCOCC3)c3nc(C)c(Cc4ccc(Cl)cc4F)n3n2)n[nH]1 [gandotinib]
Method in brief: as §1

[9] = compound: Cc1cccc(CC(=O)N2CCc3c2ccc(-c2cn(C)c4ncnc(N)c24)c3F)n1
Method in brief: as §1

tozasertib = compound: Cc1cc(Nc2cc(N3CCN(C)CC3)nc(Sc3ccc(NC(=O)C4CC4)cc3)n2)n[nH]1 [tozasertib]
Method in brief: as §1

Measured: log2 fold change

GLCE (UniProt O94923)
inactive: [1] -0.012 | crizotinib 0.116 | [2] 0.037 | doramapimod 0.047 | bafetinib -0.059 | nilotinib -0.012 | [3] -0.077 | [4] 0.169 | [5] 0.038 | tipifarnib 0.143

GIT1 isoform 3 (UniProt Q9Y2X7)
inactive: [1] -0.106 | crizotinib -0.372 | [6] 0.014 | [2] 0.181 | duvelisib 0 | [7] -0.059 | doramapimod 0.029 | ispinesib -0.23 | dasatinib -0.113 | [5] -0.067 | [8] 0.273 | tipifarnib -0.003 | mubritinib -0.101

GLS isoform 3 (UniProt O94925)
inactive: [1] 0.038 | crizotinib 0.021 | [6] 0.256 | [2] -0.007 | gandotinib -0.264 | [7] 0.064 | doramapimod 0.023 | ispinesib 0.219 | bafetinib 0.045 | [9] 0.028 | nilotinib -0.238 | [3] -0.162 | dasatinib -0.282 | [4] 0.046 | [5] -0.097 | [8] 0.114 | tipifarnib -0.208
active: mubritinib -0.492

GLYR1 (UniProt Q49A26)
inactive: [1] 0.033 | crizotinib 0.008 | [6] -0.125 | [2] 0.075 | gandotinib 0.016 | [7] -0.06 | doramapimod 0.117 | ispinesib -0.132 | bafetinib 0.109 | [9] -0.015 | nilotinib 0.082 | [3] 0.068 | dasatinib 0.067 | [4] -0.004 | [5] -0.004 | [8] -0.01 | tipifarnib 0.054 | mubritinib 0.024

GNPAT (UniProt O15228)
inactive: [1] 0.029 | crizotinib -0.071 | [6] 0.087 | [2] -0.088 | gandotinib -0.076 | [7] 0.06 | doramapimod 0.034 | ispinesib -0.006 | bafetinib -0.129 | [9] 0.045 | nilotinib -0.011 | [3] -0.008 | dasatinib 0.014 | [4] -0.028 | [5] 0.059 | [8] 0.005 | tipifarnib 0.031 | mubritinib 0.005

GPKOW (UniProt Q92917)
inactive: [1] 0.004 | crizotinib -0.147 | [6] 0.104 | [2] -0.004 | gandotinib -0.094 | [7] 0.195 | doramapimod -0.03 | ispinesib -0.013 | bafetinib -0.025 | [9] 0.086 | nilotinib -0.057 | [3] -0.207 | [4] -0.025 | [5] 0.114 | [8] 0.139 | tipifarnib -0.071 | mubritinib 0.126
active: dasatinib -0.326

GINS2 (UniProt Q9Y248)
inactive: [1] -0.066 | crizotinib -0.036 | [6] -0.046 | [2] -0.15 | gandotinib 0.004 | [7] 0.247 | doramapimod 0.026 | ispinesib 0.167 | bafetinib -0.025 | [9] 0.106 | nilotinib -0.024 | [3] -0.031 | dasatinib -0.265 | [4] 0.03 | [5] -0.057 | [8] -0.111 | tipifarnib -0.064 | mubritinib 0.03

GNAS (UniProt Q5JWF2)
inactive: [1] 0.049 | crizotinib 0.047 | [6] 0.039 | [2] -0.031 | gandotinib -0.034 | [7] 0.003 | doramapimod 0.007 | ispinesib -0.141 | bafetinib 0.129 | [9] -0.001 | nilotinib 0.103 | [3] -0.02 | dasatinib 0.064 | [4] 0.005 | [5] 0.029 | [8] 0.031 | tipifarnib 0.005 | mubritinib -0.035

Quoted at random: 2 records from the list, in no set order.
GPKOW (UniProt Q92917)
inactive: [1] 0.004 | crizotinib -0.147 | [6] 0.104 | [2] -0.004 | gandotinib -0.094 | [7] 0.195 | doramapimod -0.03 | ispinesib -0.013 | bafetinib -0.025 | [9] 0.086 | nilotinib -0.057 | [3] -0.207 | [4] -0.025 | [5] 0.114 | [8] 0.139 | tipifarnib -0.071 | mubritinib 0.126
active: dasatinib -0.326

GNPAT (UniProt O15228)
inactive: [1] 0.029 | crizotinib -0.071 | [6] 0.087 | [2] -0.088 | gandotinib -0.076 | [7] 0.06 | doramapimod 0.034 | ispinesib -0.006 | bafetinib -0.129 | [9] 0.045 | nilotinib -0.011 | [3] -0.008 | dasatinib 0.014 | [4] -0.028 | [5] 0.059 | [8] 0.005 | tipifarnib 0.031 | mubritinib 0.005

Next records follow.

GPS2 (UniProt Q13227)
inactive: [1] -0.114 | crizotinib 0.019 | [6] 0.208 | doramapimod 0.047 | bafetinib -0.157 | nilotinib 0 | [3] -0.045 | [4] -0.074 | [8] 0.02 | tipifarnib -0.033 | mubritinib -0.059
active: ispinesib 0.31

GLUD1 (UniProt P00367)
inactive: [1] 0.16 | crizotinib -0.016 | [6] 0.058 | [2] 0.005 | gandotinib 0.141 | [7] -0.057 | doramapimod 0.048 | ispinesib -0.048 | bafetinib 0.25 | [9] 0.012 | dasatinib 0.056 | [4] -0.015 | [5] 0.173 | [8] 0.04 | tipifarnib 0.068 | mubritinib 0.046
active: nilotinib 0.382 | [3] 0.266

GNL1 (UniProt P36915)
inactive: [1] 0.051 | crizotinib -0.014 | [6] 0.162 | [2] -0.011 | gandotinib 0.028 | [7] 0.052 | doramapimod -0.019 | ispinesib 0.087 | bafetinib -0.02 | [9] 0.019 | nilotinib -0.024 | [3] 0.05 | dasatinib -0.084 | [4] 0.054 | [5] 0.047 | [8] -0.03 | tipifarnib -0.152 | mubritinib 0.009

GOPC (UniProt Q9HD26)
inactive: [1] 0.218 | crizotinib 0.293 | [6] -0.043 | [2] 0.294 | gandotinib 0.101 | [7] 0.091 | doramapimod 0.061 | ispinesib 0.038 | bafetinib 0.233 | [9] -0.131 | nilotinib 0.009 | [3] 0.05 | dasatinib -0.081 | [4] 0.021 | [5] -0.005 | [8] -0.02 | tipifarnib 0.127 | mubritinib -0.226

GMEB1 (UniProt Q9Y692)
inactive: [1] -0.036 | crizotinib 0.02 | [6] 0.04 | [2] -0.045 | gandotinib -0.11 | [7] 0.049 | doramapimod -0.038 | ispinesib 0.01 | bafetinib -0.12 | [9] -0.048 | nilotinib -0.04 | [3] -0.036 | dasatinib -0.06 | [4] 0.001 | [5] 0.019 | [8] 0.044 | tipifarnib -0.204 | mubritinib -0.03

GREB1 (UniProt Q4ZG55)
inactive: [1] 0.121 | crizotinib 0.163 | [6] -0.046 | [2] 0.12 | doramapimod -0.007 | [5] 0.046

GPN2 (UniProt Q9H9Y4)
inactive: [1] -0.097 | crizotinib 0.071 | [2] 0.02 | duvelisib 0.151 | gandotinib -0.034 | tozasertib -0.033 | [7] -0.026 | doramapimod 0.018 | ispinesib 0.075 | bafetinib -0.033 | [9] -0.027 | nilotinib 0.079 | [3] -0.028 | dasatinib 0.136 | [4] -0.04 | [5] 0.038 | [8] -0.021 | tipifarnib 0.02 | mubritinib 0.071

GOLPH3 (UniProt Q9H4A6)
inactive: [1] -0.028 | crizotinib 0.176 | [6] 0.006 | [2] -0.038 | gandotinib -0.112 | [7] 0.012 | doramapimod -0.011 | bafetinib 0.074 | [9] 0.032 | nilotinib -0.021 | [3] -0.015 | dasatinib -0.123 | [4] -0.013 | [5] 0.02 | [8] -0.013 | tipifarnib -0.028 | mubritinib 0.07
active: ispinesib 0.379

GMEB2 (UniProt Q9UKD1)
inactive: [1] -0.012 | crizotinib 0.041 | [6] -0.063 | [2] -0.09 | gandotinib -0.001 | [7] 0.009 | doramapimod 0.053 | ispinesib 0.071 | bafetinib 0.019 | [9] 0.013 | nilotinib 0.019 | [3] -0.021 | dasatinib -0.036 | [4] -0.05 | [5] -0.084 | [8] -0.006 | tipifarnib -0.011 | mubritinib -0.041

GOLGA6B (UniProt A6NDN3)
inactive: [1] -0.003 | crizotinib 0.05 | [6] 0.036 | gandotinib 0.404 | doramapimod -0.139 | bafetinib -0.087 | [9] -0.042 | nilotinib -0.183 | [3] 0.02 | [4] 0.02 | mubritinib 0.146

GOLGB1 isoform 2 (UniProt Q14789)
inactive: [1] -0.135 | crizotinib -0.012 | [2] 0.19 | gandotinib -0.031 | [7] -0.025 | doramapimod 0.056 | ispinesib 0.012 | bafetinib -0.022 | [9] -0.03 | nilotinib -0.054 | [3] 0.018 | dasatinib 0.08 | [4] -0.078 | [5] -0.077 | [8] 0 | tipifarnib 0.014 | mubritinib 0.017
active: [6] -0.314
